Test results reported in patent US20180044434A1.
No constants are given. Whether binding was seen depends on the method and setting. Some results given as binding are weak or reduced against the parent protein; the word gives no strength.

Amino acid sequences for entries named in this document (tags omitted). A change or cut given only in a name is not applied to a line headed by its entry.
UniProt Q9UM07: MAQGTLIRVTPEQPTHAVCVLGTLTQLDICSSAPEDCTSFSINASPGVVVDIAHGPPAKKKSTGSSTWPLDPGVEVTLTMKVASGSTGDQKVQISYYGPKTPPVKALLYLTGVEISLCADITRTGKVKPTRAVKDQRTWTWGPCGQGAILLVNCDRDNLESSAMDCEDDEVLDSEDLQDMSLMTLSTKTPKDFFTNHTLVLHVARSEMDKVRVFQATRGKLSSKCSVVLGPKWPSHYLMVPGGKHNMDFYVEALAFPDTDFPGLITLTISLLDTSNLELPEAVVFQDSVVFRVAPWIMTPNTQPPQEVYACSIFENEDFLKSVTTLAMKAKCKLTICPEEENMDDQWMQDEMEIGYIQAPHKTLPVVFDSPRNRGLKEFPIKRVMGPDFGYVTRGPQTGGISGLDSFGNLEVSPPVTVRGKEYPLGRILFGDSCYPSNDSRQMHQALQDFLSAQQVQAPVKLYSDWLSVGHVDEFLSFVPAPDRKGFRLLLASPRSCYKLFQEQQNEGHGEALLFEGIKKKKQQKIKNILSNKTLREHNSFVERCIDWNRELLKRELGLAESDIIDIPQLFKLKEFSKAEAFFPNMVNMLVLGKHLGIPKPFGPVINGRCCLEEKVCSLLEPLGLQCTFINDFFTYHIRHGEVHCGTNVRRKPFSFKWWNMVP

Columns and labels:
[1] = target: full-length recombinant human PAD4 (human) (UniProt Q9UM07); experiment: ELISA, immobilized human PAD4
[2] = target: full-length recombinant human PAD4 (human) (UniProt Q9UM07); experiment: ELISA, coated human PAD4

binding [1]	binding [2]	Binder
binds	binds	humanized anti-PAD4 antibody derived from G8, VH H4.15 / VL L4.00 (antibody, human IgG1, kappa, V domains shown) VH: EVQLLESGGGLVQPGGSLRLSCAASGFTFSTYAMGWVRQAPGKGLEFVSAIRNDGSWTGYGAAVKGRFTISRDNSKNTVYLQMNSLRAEDTAVYYCAKYTGSSGGSIGAWGQGTLVTVSS VL: SYELTQPPSVSVSPGQTARITCSGGNRNYYYGWYQQKPGQAPVLVIYANDKRPSGIPERFSGSSSGTTVTLTISGVQAEDEADYYCGTADTGKYVFGGGTKLTVLG
binds	binds	humanized anti-PAD4 antibody derived from H7, VH H4.15 / VL L4.17 (antibody, IgG1, V domains shown) VH: EVQLLESGGGLVQPGGSLRLSCAASGFTFSTYAMGWVRQAPGKGLEFVSAIRNDGSWTGYGAAVKGRFTISRDNSKNTVYLQMNSLRAEDTAVYYCAKYTGSSGGSIGAWGQGTLVTVSS VL: SYELTQPPSVSVSPGQTARITCSGGSGRYYYGWYQQKPGQAPVTVIYSSTHRPSGIPERFSGSTSGNTTTLTISGVQAEDEADYYCGTADSSSYVFGGGTKLTVLG
binds	binds	humanized anti-PAD4 antibody derived from G8, VH H4.32 / VL L4.29 (antibody, IgG1, V domains shown) VH: EVQLLESGGGLVQPGGSLRLSCAASGFTFSTYAMGWVRQAPGKGLEFVAAIRNDGSWTGYGAAVKGRVTISRDNSKNTVYLQMNSLRAEDTAVYYCAKYTGSSGGSIGAWGQGTLVTVSS VL: SYELTQPPSVSVSPGQTARITCSGGNRNYYYGWYQQKPGQAPVTVIYANDKRPSGIPERFSGSNSGSTTTLTISGVQAEDEADYYCGTADTGKYVFGGGTKLTVLG
binds	binds	humanized anti-PAD4 antibody derived from H7, VH H4.15 / VL L4.06 (antibody, IgG1, V domains shown) VH: EVQLLESGGGLVQPGGSLRLSCAASGFTFSTYAMGWVRQAPGKGLEFVSAIRNDGSWTGYGAAVKGRFTISRDNSKNTVYLQMNSLRAEDTAVYYCAKYTGSSGGSIGAWGQGTLVTVSS VL: SYELTQPPSVSVSPGQTARITCSGGSGRYYYGWYQQKPGQAPVTVIYSSTHRPSGIPERFSGSYSGNTTTLTISGVQAEDEADYYCGTADSSSYVFGGGTKLTVLG
binds	binds	humanized anti-PAD4 antibody derived from H7, VH H4.15 / VL L4.15 (antibody, IgG1, V domains shown) VH: EVQLLESGGGLVQPGGSLRLSCAASGFTFSTYAMGWVRQAPGKGLEFVSAIRNDGSWTGYGAAVKGRFTISRDNSKNTVYLQMNSLRAEDTAVYYCAKYTGSSGGSIGAWGQGTLVTVSS VL: SYELTQPPSVSVSPGQTARITCSGGSGRYYYGWYQQKPGQAPVTVIYSSTHRPSGIPERFSGSNSGNTTTLTISGVQAEDEADYYCGTADSSSYVFGGGTKLTVLG
binds	binds	humanized anti-PAD4 antibody derived from H7, VH H4.32 / VL L4.06 (antibody, IgG1, V domains shown) VH: EVQLLESGGGLVQPGGSLRLSCAASGFTFSTYAMGWVRQAPGKGLEFVAAIRNDGSWTGYGAAVKGRVTISRDNSKNTVYLQMNSLRAEDTAVYYCAKYTGSSGGSIGAWGQGTLVTVSS VL: SYELTQPPSVSVSPGQTARITCSGGSGRYYYGWYQQKPGQAPVTVIYSSTHRPSGIPERFSGSYSGNTTTLTISGVQAEDEADYYCGTADSSSYVFGGGTKLTVLG
binds	binds	humanized anti-PAD4 antibody derived from G8, VH H4.15 / VL L4.17 (antibody, human IgG1, kappa, V domains shown) VH: EVQLLESGGGLVQPGGSLRLSCAASGFTFSTYAMGWVRQAPGKGLEFVSAIRNDGSWTGYGAAVKGRFTISRDNSKNTVYLQMNSLRAEDTAVYYCAKYTGSSGGSIGAWGQGTLVTVSS VL: SYELTQPPSVSVSPGQTARITCSGGNRNYYYGWYQQKPGQAPVTVIYANDKRPSGIPERFSGSTSGNTTTLTISGVQAEDEADYYCGTADTGKYVFGGGTKLTVLG
binds	binds	humanized anti-PAD4 antibody derived from H7, VH H4.32 / VL L4.17 (antibody, IgG1, V domains shown) VH: EVQLLESGGGLVQPGGSLRLSCAASGFTFSTYAMGWVRQAPGKGLEFVAAIRNDGSWTGYGAAVKGRVTISRDNSKNTVYLQMNSLRAEDTAVYYCAKYTGSSGGSIGAWGQGTLVTVSS VL: SYELTQPPSVSVSPGQTARITCSGGSGRYYYGWYQQKPGQAPVTVIYSSTHRPSGIPERFSGSTSGNTTTLTISGVQAEDEADYYCGTADSSSYVFGGGTKLTVLG
binds	binds	humanized anti-PAD4 antibody derived from G8, VH H4.15 / VL L4.06 (antibody, human IgG1, kappa, V domains shown) VH: EVQLLESGGGLVQPGGSLRLSCAASGFTFSTYAMGWVRQAPGKGLEFVSAIRNDGSWTGYGAAVKGRFTISRDNSKNTVYLQMNSLRAEDTAVYYCAKYTGSSGGSIGAWGQGTLVTVSS VL: SYELTQPPSVSVSPGQTARITCSGGNRNYYYGWYQQKPGQAPVTVIYANDKRPSGIPERFSGSYSGNTTTLTISGVQAEDEADYYCGTADTGKYVFGGGTKLTVLG
binds	binds	humanized anti-PAD4 antibody derived from G8, VH H4.15 / VL L4.29 (antibody, human IgG1, kappa, V domains shown) VH: EVQLLESGGGLVQPGGSLRLSCAASGFTFSTYAMGWVRQAPGKGLEFVSAIRNDGSWTGYGAAVKGRFTISRDNSKNTVYLQMNSLRAEDTAVYYCAKYTGSSGGSIGAWGQGTLVTVSS VL: SYELTQPPSVSVSPGQTARITCSGGNRNYYYGWYQQKPGQAPVTVIYANDKRPSGIPERFSGSNSGSTTTLTISGVQAEDEADYYCGTADTGKYVFGGGTKLTVLG
binds	binds	humanized anti-PAD4 antibody derived from H7, VH H4.32 / VL L4.00 (antibody, IgG1, V domains shown) VH: EVQLLESGGGLVQPGGSLRLSCAASGFTFSTYAMGWVRQAPGKGLEFVAAIRNDGSWTGYGAAVKGRVTISRDNSKNTVYLQMNSLRAEDTAVYYCAKYTGSSGGSIGAWGQGTLVTVSS VL: SYELTQPPSVSVSPGQTARITCSGGSGRYYYGWYQQKPGQAPVLVIYSSTHRPSGIPERFSGSSSGTTVTLTISGVQAEDEADYYCGTADSSSYVFGGGTKLTVLG
binds	binds	humanized anti-PAD4 antibody derived from H7, VH H4.32 / VL L4.15 (antibody, IgG1, V domains shown) VH: EVQLLESGGGLVQPGGSLRLSCAASGFTFSTYAMGWVRQAPGKGLEFVAAIRNDGSWTGYGAAVKGRVTISRDNSKNTVYLQMNSLRAEDTAVYYCAKYTGSSGGSIGAWGQGTLVTVSS VL: SYELTQPPSVSVSPGQTARITCSGGSGRYYYGWYQQKPGQAPVTVIYSSTHRPSGIPERFSGSNSGNTTTLTISGVQAEDEADYYCGTADSSSYVFGGGTKLTVLG
binds	binds	humanized anti-PAD4 antibody derived from H7, VH H4.15 / VL L4.00 (antibody, IgG1, V domains shown) VH: EVQLLESGGGLVQPGGSLRLSCAASGFTFSTYAMGWVRQAPGKGLEFVSAIRNDGSWTGYGAAVKGRFTISRDNSKNTVYLQMNSLRAEDTAVYYCAKYTGSSGGSIGAWGQGTLVTVSS VL: SYELTQPPSVSVSPGQTARITCSGGSGRYYYGWYQQKPGQAPVLVIYSSTHRPSGIPERFSGSSSGTTVTLTISGVQAEDEADYYCGTADSSSYVFGGGTKLTVLG
binds	binds	humanized anti-PAD4 antibody derived from G8, VH H4.32 / VL L4.17 (antibody, IgG1, V domains shown) VH: EVQLLESGGGLVQPGGSLRLSCAASGFTFSTYAMGWVRQAPGKGLEFVAAIRNDGSWTGYGAAVKGRVTISRDNSKNTVYLQMNSLRAEDTAVYYCAKYTGSSGGSIGAWGQGTLVTVSS VL: SYELTQPPSVSVSPGQTARITCSGGNRNYYYGWYQQKPGQAPVTVIYANDKRPSGIPERFSGSTSGNTTTLTISGVQAEDEADYYCGTADTGKYVFGGGTKLTVLG
binds	binds	humanized anti-PAD4 antibody derived from G8, VH H4.32 / VL L4.06 (antibody, IgG1, V domains shown) VH: EVQLLESGGGLVQPGGSLRLSCAASGFTFSTYAMGWVRQAPGKGLEFVAAIRNDGSWTGYGAAVKGRVTISRDNSKNTVYLQMNSLRAEDTAVYYCAKYTGSSGGSIGAWGQGTLVTVSS VL: SYELTQPPSVSVSPGQTARITCSGGNRNYYYGWYQQKPGQAPVTVIYANDKRPSGIPERFSGSYSGNTTTLTISGVQAEDEADYYCGTADTGKYVFGGGTKLTVLG
binds	binds	humanized anti-PAD4 antibody derived from G8, VH H4.32 / VL L4.00 (antibody, IgG1, V domains shown) VH: EVQLLESGGGLVQPGGSLRLSCAASGFTFSTYAMGWVRQAPGKGLEFVAAIRNDGSWTGYGAAVKGRVTISRDNSKNTVYLQMNSLRAEDTAVYYCAKYTGSSGGSIGAWGQGTLVTVSS VL: SYELTQPPSVSVSPGQTARITCSGGNRNYYYGWYQQKPGQAPVLVIYANDKRPSGIPERFSGSSSGTTVTLTISGVQAEDEADYYCGTADTGKYVFGGGTKLTVLG
